Assay results taken from paper PMC11882747.
These are yes or no findings as the source states them, for the method shown. In cells and extracts the contact can be indirect. Some binding calls cover weakened binding; strength is not graded here.

Protein sequences, listed by entry. Tags and fused reporters are not part of them.
UniProt P09429: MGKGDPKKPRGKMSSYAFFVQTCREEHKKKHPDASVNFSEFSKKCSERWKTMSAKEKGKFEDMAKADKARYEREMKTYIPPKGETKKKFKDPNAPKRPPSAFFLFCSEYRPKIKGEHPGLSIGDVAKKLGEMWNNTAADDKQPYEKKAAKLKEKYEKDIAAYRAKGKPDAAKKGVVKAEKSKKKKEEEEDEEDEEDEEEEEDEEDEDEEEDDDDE
UniProt P63159: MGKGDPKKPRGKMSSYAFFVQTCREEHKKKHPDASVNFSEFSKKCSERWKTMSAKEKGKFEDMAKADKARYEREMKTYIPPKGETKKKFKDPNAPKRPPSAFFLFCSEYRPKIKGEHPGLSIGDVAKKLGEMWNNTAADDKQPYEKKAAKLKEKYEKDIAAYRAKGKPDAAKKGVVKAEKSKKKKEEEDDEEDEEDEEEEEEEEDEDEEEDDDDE

How the values were obtained:
[1] = molecular target: heat shock protein 90 alpha family class A member 1 (Hsp90α), endogenous in HK-2 cells (human (endogenous in HK-2)) (UniProt P07900); experiment: co-IP; endogenous proteins in lysate (1 mg protein) of HK-2 cells treated with TNF-α/OGSD for 12 h, without or with LM49 (LM49 reduced the binding); anti-Hsp90α, anti-HMGB1 or anti-IgG overnight at 4°C, protein A + G agarose, Western blot
[2] = molecular target: heat shock protein 90 alpha family class A member 1 (Hsp90α), endogenous in HK-2 cells (human (endogenous in HK-2)) (UniProt P07900); experiment: co-IP; endogenous proteins in lysate (1 mg protein) of control HK-2 cells (normal culture, no TNF-α/OGSD); anti-Hsp90α, anti-HMGB1 or anti-IgG overnight at 4°C, protein A + G agarose, Western blot
[3] = molecular target: heat shock protein 90 alpha family class A member 1 (Hsp90α), endogenous in rat kidney (rat (endogenous in kidney tissue)) (UniProt P82995); experiment: co-IP; endogenous proteins in kidney tissue lysate (1 mg protein) of sham-operated rats; anti-Hsp90α, anti-HMGB1 or anti-IgG overnight at 4°C, protein A + G agarose, Western blot
[4] = molecular target: heat shock protein 90 alpha family class A member 1 (Hsp90α), endogenous in rat kidney (rat (endogenous in kidney tissue)) (UniProt P82995); experiment: co-IP; endogenous proteins in kidney tissue lysate (1 mg protein) of UUO rats, without or with LM49 90 mg/kg/day (LM49 reduced the binding); anti-Hsp90α, anti-HMGB1 or anti-IgG overnight at 4°C, protein A + G agarose, Western blot

binding [1] | binding [2] | binding [3] | binding [4] | Substance
binds | binds weakly |  |  | high-mobility group box 1 (HMGB1), endogenous in HK-2 cells (from UniProt P09429 1-215)
 |  | binds weakly | binds | high-mobility group box 1 (HMGB1), endogenous in rat kidney (from UniProt P63159 1-215)
